# Data reported in the supplement of paper PMC12823440, “Inhibitors supercharge kinase turnover through native proteolytic circuits” (Nature, 2025).
# Protein sequences, listed by entry. Tags and fused reporters are not part of them. Lines headed by an entry give the natural chain unless they say otherwise; changes in a name come on top.
# UniProt Q9Y616: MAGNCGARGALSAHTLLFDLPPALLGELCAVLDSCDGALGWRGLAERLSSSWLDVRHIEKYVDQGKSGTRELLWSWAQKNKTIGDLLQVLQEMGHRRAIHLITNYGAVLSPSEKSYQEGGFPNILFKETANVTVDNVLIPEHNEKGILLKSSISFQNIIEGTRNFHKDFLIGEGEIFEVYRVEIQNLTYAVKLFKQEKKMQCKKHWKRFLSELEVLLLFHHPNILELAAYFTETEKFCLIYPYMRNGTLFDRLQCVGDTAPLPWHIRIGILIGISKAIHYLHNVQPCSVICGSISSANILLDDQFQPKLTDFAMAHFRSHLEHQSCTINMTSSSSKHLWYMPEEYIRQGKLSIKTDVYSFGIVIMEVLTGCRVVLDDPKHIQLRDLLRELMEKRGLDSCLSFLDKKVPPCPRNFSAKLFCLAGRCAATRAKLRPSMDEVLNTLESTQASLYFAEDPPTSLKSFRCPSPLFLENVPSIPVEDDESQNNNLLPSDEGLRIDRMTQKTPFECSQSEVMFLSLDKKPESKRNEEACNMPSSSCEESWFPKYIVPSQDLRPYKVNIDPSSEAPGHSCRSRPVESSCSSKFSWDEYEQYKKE
# Counter-ions that a name gives are not always drawn. Some of the results follow. Hit calls seldom repeat between salt and free forms of one compound.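 In K562 cells expressing nanoluciferase-fused kinases, luminescence was recorded at 4 h intervals between 2 and 18 h, normalized as percent of control with DMSO at 100% and a positive control at 0%. A significant (2 sigma) signal drop marks a time point as decreased. The authors' rule for a hit is not shown and takes in more than the number of time points.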
# Target: IRAK3 (UniProt Q9Y616)
# Assay: kinase-Nluc reporter destabilization hit call (1 = scored as downregulated) (binary); higher = compound decreases kinase abundance
# Details: 2.5 µM; K562; 2-18 h
row,SMILES,kinase-Nluc reporter destabilization hit call
1,COc1cc2/c(=N/c3ccc(Br)cc3F)nc[nH]c2cc1OCC1CCN(C)CC1 [Vandetanib],inactive: 0
2,CC(C)n1nc(-c2cc3cc(O)ccc3[nH]2)c2c(N)ncnc21 [Torkinib],inactive: 0
3,Cc1nc(Nc2ncc(C(=O)Nc3c(C)cccc3Cl)s2)cc(N2CCN(CCO)CC2)n1 [Dasatinib],inactive: 0
4,CC1(C)C(=O)N([C@H]2CCc3c(O)cccc32)c2nc(Nc3cccc(CN4CCCC4)c3)ncc21,inactive: 0
5,CNC(=O)c1cc(Oc2ccc(NC(=O)Nc3ccc(Cl)c(C(F)(F)F)c3)cc2)ccn1 [Sorafenib],inactive: 0
6,CN1CCN(c2ccc3nc(-c4c(N)c5c(F)cccc5[nH]c4=O)[nH]c3c2)CC1 [Dovitinib (lactate)],inactive: 0
7,CC1(C)CNc2cc(NC(=O)c3cccnc3NCc3ccncc3)ccc21 [Motesanib],inactive: 0
8,Cc1cc(Nc2cc(N3CCN(C)CC3)nc(/C=C/c3ccccc3)n2)n[nH]1,inactive: 0

# Same assay, conditions: 10 µM; K562; 2-18 h
row,SMILES,kinase-Nluc reporter destabilization hit call
1,COc1nccc(-c2c(-c3ccc(F)cc3)ncn2C2CCNCC2)n1,inactive: 0
2,COc1ccc(-c2c[nH]c3nccc(-c4ccsc4)c23)c(OC)c1,inactive: 0
3,C[C@@]1(C(=O)Nc2ccc(F)nc2)CCCN1c1nc(Nc2cc(C3CC3)n[nH]2)c2cccn2n1,inactive: 0
4,Cc1ccc(Nc2nccc(N(C)c3ccc4c(C)n(C)nc4c3)n2)cc1S(N)(=O)=O [Pazopanib],inactive: 0
5,Cc1cc2c(F)c(Oc3ncnn4cc(OC[C@@H](C)O)c(C)c34)ccc2[nH]1 [Brivanib],inactive: 0
6,C=CC(=O)Nc1cc2c(Nc3ccc(F)c(Cl)c3)ncnc2cc1OCCCN1CCOCC1 [Canertinib],inactive: 0
7,Cc1ccc(Nc2nccc(N(C)c3ccc4c(C)n(C)nc4c3)n2)cc1S(N)(=O)=O [Pazopanib (Hydrochloride)],inactive: 0
8,CC(C)(C)n1nc(-c2ccc(Cl)cc2)c2c(N)ncnc21,inactive: 0
9,COc1cc2ncnc(Nc3ccc(F)c(Cl)c3)c2cc1OCCCN1CCOCC1 [Gefitinib],inactive: 0
10,O=C(Nc1cccc(Cl)c1)Nc1ncc(CCNc2ncnc3ccsc23)s1 [SNS-314 (mesylate)],inactive: 0
11,CC[C@@H]1C(=O)N(C)c2cnc(Nc3ccc(C(=O)NC4CCN(C)CC4)cc3OC)nc2N1C1CCCC1,inactive: 0
12,CC#CC(=O)N1CCC[C@H]1c1nc(-c2ccc(C(=O)Nc3ccccn3)cc2)c2c(N)nccn12 [Acalabrutinib],inactive: 0
13,O=S(=O)(c1cccc2c(O)nccc12)N1CCCNCC1 [Hydroxyfasudil (hydrochloride)],inactive: 0
14,O=C1Cc2c([nH]c3ccc(Br)cc23)-c2ccccc2N1 [Kenpaullone],inactive: 0
15,O=S(=O)(c1cccc2c(O)nccc12)N1CCCNCC1 [Hydroxyfasudil],inactive: 0
16,CC(C)N(CCC(=O)c1ccc2ccccc2c1)Cc1ccccc1,inactive: 0
17,Cc1cc2ncnn2cc1Nc1ncc2c(n1)n(C1CCOCC1)c(=O)n2C,inactive: 0
18,O=C(NCCCNc1nc(Nc2cccc(CN3CCOCC3)c2)ncc1C1CC1)C1CCC1,inactive: 0
19,CNC(=O)c1cc(Oc2ccc(NC(=O)Nc3ccc(Cl)c(C(F)(F)F)c3)cc2)ccn1 [Sorafenib (Tosylate)],inactive: 0

# Copied from the list:
# For kinase-Nluc reporter destabilization hit call, O=S(=O)(c1cccc2c(O)nccc12)N1CCCNCC1 [Hydroxyfasudil] has the entry inactive: 0
# For kinase-Nluc reporter destabilization hit call, CC(C)N(CCC(=O)c1ccc2ccccc2c1)Cc1ccccc1 has the entry inactive: 0
